{"source": "PubChem BioAssay AID1259254 (NCATS, 2017)", "purpose": "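Finding genes that stop cells copying their DNA twice in one cycle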 (primary screen)", "system": "human HCT116 colorectal cancer cells", "knock-down reagent": "single siRNA against human genes", "duration": "3 days", "detection": "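Nuclei stained with Hoechst and imaged; cell-cycle phase assigned by DNA content; G2 share scaled per plate, non-targeting siRNA 0%, GMNN siRNA 100%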", "scale": "G2 robust z-score: higher = more G2 cells, more excess DNA replication", "call rule": "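An siRNA counts as active if its G2 robust z-score lies at least 5 MADs above the screen median; here such calls match roughly 38% of GMNN control or more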", "note": "Shown is an unselected part of about 59,000 reagents. Over the whole deposit, about 1,550 (2.6%) were called active. 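G2 share is only a proxy for re-replication; each gene was hit by three separate siRNAs, and active genes were retested.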 Reagents against one gene are numbered here. Further read-outs or replicates are left out here. The record does not give: the amount of reagent."}
{"Target gene": "MSRB1", "siRNA no.": 1, "G2 robust z-score": 0.201, "call": "inactive"}
{"Target gene": "MSRB1", "siRNA no.": 2, "G2 robust z-score": -1.12, "call": "inactive"}
{"Target gene": "MSRB1", "siRNA no.": 3, "G2 robust z-score": -0.937, "call": "inactive"}
{"Target gene": "FAXC", "siRNA no.": 1, "G2 robust z-score": 0.53, "call": "inactive"}
{"Target gene": "FAXC", "siRNA no.": 2, "G2 robust z-score": -0.276, "call": "inactive"}
{"Target gene": "FAXC", "siRNA no.": 3, "G2 robust z-score": -0.27, "call": "inactive"}
{"Target gene": "SLCO1B7", "siRNA no.": 1, "G2 robust z-score": -0.846, "call": "inactive"}
{"Target gene": "SLCO1B7", "siRNA no.": 2, "G2 robust z-score": -0.687, "call": "inactive"}
{"Target gene": "SLCO1B7", "siRNA no.": 3, "G2 robust z-score": -0.505, "call": "inactive"}
{"Target gene": "FGF11", "siRNA no.": 1, "G2 robust z-score": 0.014, "call": "inactive"}
{"Target gene": "FGF11", "siRNA no.": 2, "G2 robust z-score": 0.166, "call": "inactive"}
{"Target gene": "FGF11", "siRNA no.": 3, "G2 robust z-score": -0.919, "call": "inactive"}

Targets listed so far whose target name begins with F or f:
{"Target gene": "FAXC", "siRNA no.": 1, "G2 robust z-score": 0.53, "call": "inactive"}
{"Target gene": "FAXC", "siRNA no.": 2, "G2 robust z-score": -0.276, "call": "inactive"}
{"Target gene": "FAXC", "siRNA no.": 3, "G2 robust z-score": -0.27, "call": "inactive"}
{"Target gene": "FGF11", "siRNA no.": 1, "G2 robust z-score": 0.014, "call": "inactive"}
{"Target gene": "FGF11", "siRNA no.": 2, "G2 robust z-score": 0.166, "call": "inactive"}
{"Target gene": "FGF11", "siRNA no.": 3, "G2 robust z-score": -0.919, "call": "inactive"}
